One molecule from patent US20210340231A1 (FAPON BIOTECH, published 2021) can be followed below.

No constants are given. Whether binding was seen depends on the method and setting. Some binding calls cover weakened binding; strength is not graded here.

The target in this test is CTNI quality control recombinant protein (PK2-CTNI-1, 170120, produced by the applicant) (human) (UniProt P19429). Description: indirect ELISA on coated cTnI. Background: In an ELISA, binding on a coated surface is turned into a signal by an enzyme label.

B1: Mutation 1 (antibody, V domains shown)
VH: EVQLQQSGAELVKPGASVKLSCTASGFNLKDYFMHWMKQRTEQGLDWIGRIDPEDAETRYAPEFQGKATITADTSSNTAYLQLSTLTSEDTAVYYCARYYSSYIPFVYWGQGTLVTASA
VL: DVVMTQTPLSLSVSLGDQASISCRSSQSIIYSNRHTYLHWYLQKPGQSPKLLIFQISNRFSGVPDRFSGSGSGTDFTLKINRVEAEDLGVYFCSQSTHLPFTFGSGTKLEIKR
notes: No residue numbers are printed, so each chain is built as FR1-CDR1-FR2-CDR2-FR3-CDR3-FR4-constant
Consider B1, for which the binding entry is on record as “binds”.
